Measurements reported in article PMC6718399.
These are yes or no findings as the source states them, for the method shown. Binding seen in cells or lysates may run through a third protein. Some results given as binding are weak or reduced against the parent protein; the word gives no strength.

Sequences of proteins named here, by UniProt entry; tags and fusion partners are left off. A change or cut given only in a name is not applied to a line headed by its entry.
UniProt P16615: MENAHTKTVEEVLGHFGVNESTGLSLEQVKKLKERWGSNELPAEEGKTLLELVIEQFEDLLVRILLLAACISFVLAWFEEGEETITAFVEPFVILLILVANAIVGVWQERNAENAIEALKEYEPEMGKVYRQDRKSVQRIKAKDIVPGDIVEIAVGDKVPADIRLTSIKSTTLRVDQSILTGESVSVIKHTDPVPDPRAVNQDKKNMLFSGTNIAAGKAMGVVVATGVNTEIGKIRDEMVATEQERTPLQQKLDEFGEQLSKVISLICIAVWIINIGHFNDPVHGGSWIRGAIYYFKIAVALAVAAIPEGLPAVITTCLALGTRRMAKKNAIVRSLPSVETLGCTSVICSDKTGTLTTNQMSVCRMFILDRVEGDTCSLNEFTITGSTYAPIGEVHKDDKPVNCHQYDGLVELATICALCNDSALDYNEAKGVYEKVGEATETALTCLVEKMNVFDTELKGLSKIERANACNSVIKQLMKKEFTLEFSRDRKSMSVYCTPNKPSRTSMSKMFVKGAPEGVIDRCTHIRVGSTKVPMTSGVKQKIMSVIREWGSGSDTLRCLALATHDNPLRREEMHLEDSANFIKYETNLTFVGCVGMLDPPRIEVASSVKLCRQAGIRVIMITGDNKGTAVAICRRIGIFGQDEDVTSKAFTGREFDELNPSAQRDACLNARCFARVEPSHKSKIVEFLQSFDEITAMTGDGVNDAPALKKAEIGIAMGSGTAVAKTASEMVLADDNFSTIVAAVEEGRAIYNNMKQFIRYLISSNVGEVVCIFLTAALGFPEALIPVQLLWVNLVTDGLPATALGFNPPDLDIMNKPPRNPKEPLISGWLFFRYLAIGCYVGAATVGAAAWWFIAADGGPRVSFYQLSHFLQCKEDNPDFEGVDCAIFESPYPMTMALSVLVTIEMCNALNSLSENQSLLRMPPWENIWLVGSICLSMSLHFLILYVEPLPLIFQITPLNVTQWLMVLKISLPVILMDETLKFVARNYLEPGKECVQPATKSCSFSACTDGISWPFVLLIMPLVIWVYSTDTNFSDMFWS

Key:
[1] = target: SERCA2b (sarco/endoplasmic reticulum ATPase 2, isoform b) (human (endogenous in Mel202)) (UniProt P16615); experiment: co-IP; IP of SERCA2 (monoclonal ab2861, Dynabeads Protein A) from 1.5 mg lysate of Mel202 cells expressing HaloTag or Halo-PERP; 30 min at room temperature; four washes in PBS; blot with a HaloTag antibody
[2] = target: Halo-PERP (PERP fused to an N-terminal HaloTag) (UniProt Q96FX8); experiment: pull-down; HaloTag Mammalian Pull-Down System from Mel202 lysate; elution by ProTEV, then SDS; immunoblot with the SERCA2b isoform-specific antibody; two independent experiments

Substance	binding [1]	binding [2]
Halo-PERP (PERP fused to an N-terminal HaloTag) (from UniProt Q96FX8 1-193)	binds	–
SERCA2b (sarco/endoplasmic reticulum ATPase 2, isoform b) (from UniProt P16615-1 1-1042)	–	binds
